Experimental data from paper PMC12431657, “Discovery and mechanistic insights of dibenzoylmethane as a broad spectrum inhibitor of coronavirus” (PLOS Pathogens, 2025).
Counter-ions that a name gives are not always drawn. Like-named read-outs stand apart in the source and are kept apart here. About 60 (2%) of roughly 3,300 compounds showed an effect of 50% or more. The list shows a part of the results.

System: HCoV-OC43
Parameters: species or system RD; HTS, protection from HCoV-OC43 induced cell death, luminescent cell viability (CellCounting-Lite 2.0), inhibition rate
Conditions: 24 h post infection, 1 h compound pre-incubation, 10 µM, inhibitor

## CC1(C)CC[C@]2(C(=O)O)CC[C@]3(C)C(=CC[C@@H]4[C@@]5(C)C[C@@H](O)[C@H](O)[C@@](C)(CO)[C@@H]5CC[C@]43C)[C@@H]2C1 [Arjunolic acid]
  OC43 Inhibition rate: 6.3%

## COc1cc(-c2c3c(c(O)c4cc5c(cc24)OCO5)COC3=O)cc(OC)c1OC [Tetradehydropodophyllotoxin]
  OC43 Inhibition rate: 1%

## CC(C)[C@@H]1CC[C@@H](C)CC1=O [Menthone]
  OC43 Inhibition rate: 1.6%

## C[C@@H](O)C(=O)O [D-(-)-Lactic acid (sodium)]
  OC43 Inhibition rate: -6.8%

## C=C[C@@](C)(/C=C/c1ccc(O)cc1)CCC=C(C)C [Bakuchiol]
  OC43 Inhibition rate: 0.1%

## CCC(CC)C(=O)O [2-Ethylbutyric acid]
  OC43 Inhibition rate: 5.7%

## C=C(C(=O)O)[C@H]1CC[C@H](C)[C@@H]2CC(=O)C(C)=C2C1 [Rupestonic acid]
  OC43 Inhibition rate: 1.2%

## Cc1ccccc1C(=O)NCC(=O)O [2-(2-Methylbenzamido)acetic acid]
  OC43 Inhibition rate: -0.8%

## CC(=O)c1ccc2ccccc2c1 [2-Acetonaphthone]
  OC43 Inhibition rate: -1.5%

## COc1cc2c(cc1O)CC[n+]1cc3c(OC)c(OC)ccc3cc1-2 [Jatrorrhizine (chloride)]
OC43 Inhibition rate, 24 h
  OC43 Inhibition rate: -1.6%

## Cc1cc2nc3c(=O)[nH]c(=O)nc-3n(C[C@H](O)[C@H](O)[C@H](O)COP(=O)(O)OP(=O)(O)OC[C@H]3O[C@@H](n4cnc5c(N)ncnc54)[C@H](O)[C@@H]3O)c2cc1C [Flavin adenine dinucleotide (disodium salt)]
  OC43 Inhibition rate: -0.8%

## Cn1c(Cc2ccccc2)nc(=O)c2ccccc21 [Arborine]
  OC43 Inhibition rate: 6.9%

## C[C@H]1O[C@@H](O[C@H]2[C@@H](O)C[C@H](O[C@H]3[C@@H](O)C[C@H](O[C@H]4CC[C@@]5(C)[C@H](CC[C@@H]6[C@@H]5CC[C@]5(C)[C@@H](C7=CC(=O)OC7)CC[C@]65O)C4)O[C@@H]3C)O[C@@H]2C)C[C@H](O)[C@@H]1O [Digitoxin]
  OC43 Inhibition rate: -1.1%

## C=C1CCC[C@]2(C)C[C@@H]3OC(=O)C(C)=C3C[C@@H]12 [Atractylenolide II]
  OC43 Inhibition rate: 36.4%

## C=C(C)[C@@H]1CC[C@]2(C)CC[C@]3(C)[C@H](CC[C@@H]4[C@@]5(C)CC[C@H](O)C(C)(C)[C@@H]5CC[C@]43C)[C@@H]12 [Lupeol]
  OC43 Inhibition rate: 0.1%

## O=c1ccc2cc3ccoc3c(O)c2o1 [Xanthotoxol]
  OC43 Inhibition rate: 0.3%

## COC(=O)c1ccc(O)c(O)c1 [Methyl 3,4-dihydroxybenzoate]
  OC43 Inhibition rate: 2.3%

## C[C@@H]1O[C@@H](O[C@H]2[C@H](O[C@H]3CC[C@@]4(C)[C@@H](CC[C@]5(C)[C@@H]4CC=C4[C@@H]6CC(C)(C)CC[C@]6(C(=O)O[C@@H]6O[C@H](CO[C@@H]7O[C@H](CO)[C@@H](O)[C@H](O)[C@H]7O)[C@@H](O)[C@H](O)[C@H]6O)CC[C@]45C)[C@]3(C)CO)OC[C@H](O)[C@@H]2O)[C@H](O)[C@H](O[C@@H]2O[C@H](CO)[C@@H](O[C@@H]3O[C@H](CO)[C@@H](O)[C@H](O)[C@H]3O)[C@H](O)[C@H]2O)[C@H]1O [Macranthoidin B]
  OC43 Inhibition rate: -0.2%

## COc1c(-c2ccccc2)oc2ccccc2c1=O [3-Methoxyflavone]
  OC43 Inhibition rate: -2.3%

## CC(=O)CCc1ccccc1 [Benzylacetone]
  OC43 Inhibition rate: 2.4%

## CC(=O)O[C@H]1C(=O)[C@@]2(C)[C@H]([C@H](OC(=O)c3ccccc3)[C@]3(O)C[C@H](O)C(C)=C1C3(C)C)[C@]1(OC(C)=O)CO[C@@H]1C[C@@H]2O [Baccatin III]
  OC43 Inhibition rate: 0.7%

## COc1cc2c(cc1OC)[C@@H]1Cc3ccc(OC)c(OC)c3CN1CC2 [Rotundine]
OC43 Inhibition rate, 24 h
  OC43 Inhibition rate: 2.9%

## COc1ccc2[nH]c(=O)oc2c1 [Coixol]
  OC43 Inhibition rate: 0%

## C[C@@H]1O[C@@H](Oc2c(-c3ccc(O)cc3)oc3cc(O[C@@H]4O[C@@H](C)[C@H](O)[C@@H](O)[C@H]4O[C@@H]4O[C@H](CO)[C@@H](O)[C@H](O)[C@H]4O)cc(O)c3c2=O)[C@H](O)[C@H](O)[C@H]1O [Grosvenorine]
  OC43 Inhibition rate: -0.3%

## CCOC(=O)/C=C/c1ccc(OC)cc1 [(E)-Ethyl p-methoxycinnamate]
  OC43 Inhibition rate: 0.7%

## O=C(O)CCCCCCCCCC(=O)O [Undecanedioic acid]
  OC43 Inhibition rate: -1.2%

## CC1(C)CC[C@]2(C(=O)O[C@@H]3O[C@H](CO)[C@@H](O)[C@H](O)[C@H]3O)CC[C@]3(C)C(=CC[C@@H]4[C@@]5(C)CC[C@H](O)C(C)(C)[C@@H]5CC[C@]43C)[C@@H]2C1 [Oleanolic acid 28-O-β-D-glucopyranoside]
  OC43 Inhibition rate: -3.5%
